Test results: paper PMC5460031
Results are given in words; binding and its absence hold for the method and conditions named. Binding seen in cells or lysates may run through a third protein. Here binding means that the protein was enriched with, or labelled near, the bait; the list need not be complete.

Sequences of proteins named here, by UniProt entry; tags and fusion partners are left off. Residues count along the entry.
UniProt O43734: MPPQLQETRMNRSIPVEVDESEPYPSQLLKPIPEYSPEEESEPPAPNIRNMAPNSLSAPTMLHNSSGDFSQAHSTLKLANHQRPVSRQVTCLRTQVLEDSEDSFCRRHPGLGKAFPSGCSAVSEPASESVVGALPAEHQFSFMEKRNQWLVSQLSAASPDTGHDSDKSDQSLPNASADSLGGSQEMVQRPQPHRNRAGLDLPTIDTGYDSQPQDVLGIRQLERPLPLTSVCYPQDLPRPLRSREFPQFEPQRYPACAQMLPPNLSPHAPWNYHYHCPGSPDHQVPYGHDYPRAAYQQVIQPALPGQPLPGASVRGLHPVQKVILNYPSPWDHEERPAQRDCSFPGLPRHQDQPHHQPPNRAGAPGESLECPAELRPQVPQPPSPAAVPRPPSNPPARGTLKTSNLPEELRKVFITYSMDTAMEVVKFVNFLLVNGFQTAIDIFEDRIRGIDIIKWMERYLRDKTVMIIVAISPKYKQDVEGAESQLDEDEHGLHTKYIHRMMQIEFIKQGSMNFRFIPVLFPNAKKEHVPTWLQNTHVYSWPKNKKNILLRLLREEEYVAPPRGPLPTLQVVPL
UniProt Q04721, residues 26-2471: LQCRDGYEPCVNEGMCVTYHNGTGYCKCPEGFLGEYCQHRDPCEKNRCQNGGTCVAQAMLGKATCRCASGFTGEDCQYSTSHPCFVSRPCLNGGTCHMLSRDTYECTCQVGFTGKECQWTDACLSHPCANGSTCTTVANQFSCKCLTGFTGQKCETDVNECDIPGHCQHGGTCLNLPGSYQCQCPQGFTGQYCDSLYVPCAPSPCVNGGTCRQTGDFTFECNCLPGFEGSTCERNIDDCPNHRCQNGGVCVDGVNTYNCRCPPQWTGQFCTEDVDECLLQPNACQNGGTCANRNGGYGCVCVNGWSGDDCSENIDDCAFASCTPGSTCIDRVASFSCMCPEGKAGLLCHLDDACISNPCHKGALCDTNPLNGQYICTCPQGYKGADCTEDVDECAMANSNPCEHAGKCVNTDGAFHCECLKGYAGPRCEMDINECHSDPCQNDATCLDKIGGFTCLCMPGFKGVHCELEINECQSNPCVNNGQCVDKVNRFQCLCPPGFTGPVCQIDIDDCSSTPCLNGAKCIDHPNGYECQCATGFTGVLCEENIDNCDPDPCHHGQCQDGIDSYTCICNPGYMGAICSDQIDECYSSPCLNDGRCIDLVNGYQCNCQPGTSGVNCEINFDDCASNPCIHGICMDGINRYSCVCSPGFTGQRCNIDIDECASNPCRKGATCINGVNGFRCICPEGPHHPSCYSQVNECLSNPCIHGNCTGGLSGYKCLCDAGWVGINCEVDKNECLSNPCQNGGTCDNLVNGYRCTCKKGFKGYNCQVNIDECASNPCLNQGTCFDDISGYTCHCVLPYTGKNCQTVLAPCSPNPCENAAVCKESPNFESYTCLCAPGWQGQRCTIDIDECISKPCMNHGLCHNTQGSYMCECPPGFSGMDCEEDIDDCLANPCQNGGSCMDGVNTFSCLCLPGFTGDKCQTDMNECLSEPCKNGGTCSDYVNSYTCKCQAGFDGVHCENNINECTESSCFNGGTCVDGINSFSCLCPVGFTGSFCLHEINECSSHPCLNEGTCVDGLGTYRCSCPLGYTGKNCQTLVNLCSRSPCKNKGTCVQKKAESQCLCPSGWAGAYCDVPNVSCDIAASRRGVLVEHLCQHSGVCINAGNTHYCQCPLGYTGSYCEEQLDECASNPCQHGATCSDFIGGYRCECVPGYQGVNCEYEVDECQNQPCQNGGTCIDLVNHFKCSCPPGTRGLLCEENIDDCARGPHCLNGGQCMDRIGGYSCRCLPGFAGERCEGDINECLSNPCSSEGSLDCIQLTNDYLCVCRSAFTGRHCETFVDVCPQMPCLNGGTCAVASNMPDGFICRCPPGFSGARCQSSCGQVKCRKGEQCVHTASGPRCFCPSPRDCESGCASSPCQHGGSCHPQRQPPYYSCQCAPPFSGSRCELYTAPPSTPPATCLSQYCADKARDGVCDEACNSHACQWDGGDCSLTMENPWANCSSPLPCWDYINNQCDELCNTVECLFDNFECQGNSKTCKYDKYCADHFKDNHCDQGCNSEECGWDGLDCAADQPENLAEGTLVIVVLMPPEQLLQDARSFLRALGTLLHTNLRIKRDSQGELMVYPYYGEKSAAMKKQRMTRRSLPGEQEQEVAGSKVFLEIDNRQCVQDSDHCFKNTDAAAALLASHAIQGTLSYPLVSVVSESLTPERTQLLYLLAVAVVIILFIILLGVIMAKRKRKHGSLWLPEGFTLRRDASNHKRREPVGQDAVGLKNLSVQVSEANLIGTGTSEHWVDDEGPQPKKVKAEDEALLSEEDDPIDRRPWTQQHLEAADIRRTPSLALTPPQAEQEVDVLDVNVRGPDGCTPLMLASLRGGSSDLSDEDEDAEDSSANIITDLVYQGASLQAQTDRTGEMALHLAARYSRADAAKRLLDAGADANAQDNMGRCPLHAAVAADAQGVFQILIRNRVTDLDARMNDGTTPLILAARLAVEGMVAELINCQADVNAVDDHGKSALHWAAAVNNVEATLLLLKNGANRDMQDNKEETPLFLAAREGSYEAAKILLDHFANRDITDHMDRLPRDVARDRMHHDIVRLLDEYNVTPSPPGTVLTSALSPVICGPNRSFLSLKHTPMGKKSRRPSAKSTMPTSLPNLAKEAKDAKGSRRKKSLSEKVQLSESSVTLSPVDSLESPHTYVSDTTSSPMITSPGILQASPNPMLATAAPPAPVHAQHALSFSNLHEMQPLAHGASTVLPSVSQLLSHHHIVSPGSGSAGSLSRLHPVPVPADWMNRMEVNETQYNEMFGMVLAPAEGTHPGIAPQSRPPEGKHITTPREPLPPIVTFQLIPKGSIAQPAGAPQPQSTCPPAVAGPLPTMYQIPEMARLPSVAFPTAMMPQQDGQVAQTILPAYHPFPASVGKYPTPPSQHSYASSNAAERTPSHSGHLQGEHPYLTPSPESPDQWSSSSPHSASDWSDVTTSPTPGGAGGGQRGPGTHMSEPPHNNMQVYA
UniProt Q9UM47, residues 40-2321: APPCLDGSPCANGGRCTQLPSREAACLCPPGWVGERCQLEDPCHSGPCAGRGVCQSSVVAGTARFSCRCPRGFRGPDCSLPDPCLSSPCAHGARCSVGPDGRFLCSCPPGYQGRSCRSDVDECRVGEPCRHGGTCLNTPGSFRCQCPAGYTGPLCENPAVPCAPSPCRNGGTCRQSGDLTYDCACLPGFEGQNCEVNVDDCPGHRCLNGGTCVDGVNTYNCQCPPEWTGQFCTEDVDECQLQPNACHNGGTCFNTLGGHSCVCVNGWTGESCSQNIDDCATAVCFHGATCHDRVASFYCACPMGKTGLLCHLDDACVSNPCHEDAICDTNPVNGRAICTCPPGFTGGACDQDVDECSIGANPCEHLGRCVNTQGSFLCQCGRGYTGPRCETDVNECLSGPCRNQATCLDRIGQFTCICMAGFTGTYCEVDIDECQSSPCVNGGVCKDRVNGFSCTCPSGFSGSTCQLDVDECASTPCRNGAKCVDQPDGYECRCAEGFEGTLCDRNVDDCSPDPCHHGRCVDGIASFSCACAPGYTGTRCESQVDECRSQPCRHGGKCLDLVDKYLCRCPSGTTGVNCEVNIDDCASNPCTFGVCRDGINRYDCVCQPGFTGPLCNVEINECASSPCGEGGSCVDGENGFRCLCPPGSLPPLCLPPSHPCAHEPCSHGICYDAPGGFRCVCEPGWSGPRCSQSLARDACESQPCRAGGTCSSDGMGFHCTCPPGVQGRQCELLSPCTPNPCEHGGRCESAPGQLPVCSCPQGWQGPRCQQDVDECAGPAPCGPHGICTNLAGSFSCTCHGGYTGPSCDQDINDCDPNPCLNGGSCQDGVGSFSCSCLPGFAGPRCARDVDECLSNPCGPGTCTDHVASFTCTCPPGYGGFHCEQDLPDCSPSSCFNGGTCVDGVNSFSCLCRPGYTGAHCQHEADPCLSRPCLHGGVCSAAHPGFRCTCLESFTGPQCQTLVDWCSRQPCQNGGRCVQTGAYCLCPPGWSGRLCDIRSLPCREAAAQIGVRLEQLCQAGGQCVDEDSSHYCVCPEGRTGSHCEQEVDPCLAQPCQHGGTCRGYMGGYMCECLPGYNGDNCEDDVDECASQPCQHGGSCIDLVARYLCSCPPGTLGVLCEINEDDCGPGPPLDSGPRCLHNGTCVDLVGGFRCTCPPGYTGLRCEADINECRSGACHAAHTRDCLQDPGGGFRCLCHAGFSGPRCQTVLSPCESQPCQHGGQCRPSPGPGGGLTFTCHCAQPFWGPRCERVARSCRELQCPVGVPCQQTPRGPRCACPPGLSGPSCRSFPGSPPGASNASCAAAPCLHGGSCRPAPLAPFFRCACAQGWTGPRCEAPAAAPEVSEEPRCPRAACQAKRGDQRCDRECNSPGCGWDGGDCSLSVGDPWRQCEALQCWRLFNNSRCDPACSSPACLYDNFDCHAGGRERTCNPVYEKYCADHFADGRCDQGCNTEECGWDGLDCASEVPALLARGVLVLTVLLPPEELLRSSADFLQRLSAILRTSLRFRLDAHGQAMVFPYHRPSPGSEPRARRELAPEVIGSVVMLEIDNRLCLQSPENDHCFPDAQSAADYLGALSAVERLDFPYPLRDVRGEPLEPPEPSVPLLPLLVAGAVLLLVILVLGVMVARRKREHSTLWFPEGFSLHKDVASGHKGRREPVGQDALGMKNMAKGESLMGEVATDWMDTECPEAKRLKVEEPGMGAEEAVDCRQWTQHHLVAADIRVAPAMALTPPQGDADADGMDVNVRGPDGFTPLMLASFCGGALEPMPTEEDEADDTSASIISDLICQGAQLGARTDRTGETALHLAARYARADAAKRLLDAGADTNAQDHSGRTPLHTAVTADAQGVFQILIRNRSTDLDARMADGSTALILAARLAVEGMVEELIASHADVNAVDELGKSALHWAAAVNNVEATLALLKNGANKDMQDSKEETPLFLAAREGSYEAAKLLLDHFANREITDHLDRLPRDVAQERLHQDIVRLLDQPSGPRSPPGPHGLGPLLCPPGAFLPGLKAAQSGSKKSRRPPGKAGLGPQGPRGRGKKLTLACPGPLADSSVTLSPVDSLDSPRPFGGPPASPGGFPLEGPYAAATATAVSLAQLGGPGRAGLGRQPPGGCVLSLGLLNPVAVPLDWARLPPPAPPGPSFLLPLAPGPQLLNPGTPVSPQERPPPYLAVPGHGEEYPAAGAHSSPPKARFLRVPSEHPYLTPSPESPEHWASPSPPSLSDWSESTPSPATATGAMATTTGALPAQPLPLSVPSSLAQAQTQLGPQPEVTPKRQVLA

Each substance was assayed against endogenous Act1 (HeLa cells) (human (endogenous in HeLa)) (UniProt O43734) (assay: affinity purification with mass spectrometry; endogenous Act1 immunoprecipitated from lysates of HeLa cells treated with IL-17; co-precipitated proteins found by LC-MS/MS).
With “NOTCH1 (endogenous, HeLa cells) (from UniProt P46531 19-2555) (receptor)” the binding was “binds”. “NOTCH2 (endogenous, HeLa cells) (from UniProt Q04721 26-2471) (receptor)” was tested, and the binding was “binds”. “NOTCH3 (endogenous, HeLa cells) (from UniProt Q9UM47 40-2321) (receptor)” was tested, and the binding was “binds”.
